From article PMC8593141
Results are given in words; binding and its absence hold for the method and conditions named. In cells and extracts the contact can be indirect. Binding can be weak; no strength is given. Sequences can lack the tags named with a protein.

Molecular target: T1, mouse Kv4.2 channel with GFP fused to the C-terminus (Kv4.2g) (mouse) (UniProt Q9Z0V2)
T1 sequence: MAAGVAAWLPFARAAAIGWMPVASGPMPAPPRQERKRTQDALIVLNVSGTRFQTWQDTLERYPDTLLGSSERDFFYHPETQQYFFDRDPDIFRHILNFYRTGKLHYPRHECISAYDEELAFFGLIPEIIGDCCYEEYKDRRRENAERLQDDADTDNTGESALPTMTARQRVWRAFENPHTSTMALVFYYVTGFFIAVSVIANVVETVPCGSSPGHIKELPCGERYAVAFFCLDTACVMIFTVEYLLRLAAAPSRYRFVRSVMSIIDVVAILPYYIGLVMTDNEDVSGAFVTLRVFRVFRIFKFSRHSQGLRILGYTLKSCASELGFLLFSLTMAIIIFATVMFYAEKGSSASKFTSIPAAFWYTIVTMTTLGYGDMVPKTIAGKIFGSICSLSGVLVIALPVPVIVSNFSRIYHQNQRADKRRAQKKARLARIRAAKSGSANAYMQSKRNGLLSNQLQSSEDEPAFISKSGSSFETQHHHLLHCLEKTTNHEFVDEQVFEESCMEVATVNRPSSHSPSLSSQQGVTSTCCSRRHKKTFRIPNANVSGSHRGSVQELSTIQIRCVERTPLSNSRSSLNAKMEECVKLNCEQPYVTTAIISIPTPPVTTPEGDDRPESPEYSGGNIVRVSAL
Test: co-IP; preliminary immunoprecipitation from HEK cells co-transfected with Kv4.2g, HA-KChIP2a and HA-DPP10c (Supplementary Figure 1D); antibody used for the IP not given

Substance: hemagglutinin (HA)-tagged KChIP2a (HA-KChIP2a)
- binding: binds
